Assay results published in article PMC4583546.
No constants are given. Whether binding was seen depends on the method and setting. In cells and extracts the contact can be indirect. Some entries that bind do so weakly or less than the wild type.

Amino acid sequences for entries named in this document (tags omitted).
UniProt Q96MN2: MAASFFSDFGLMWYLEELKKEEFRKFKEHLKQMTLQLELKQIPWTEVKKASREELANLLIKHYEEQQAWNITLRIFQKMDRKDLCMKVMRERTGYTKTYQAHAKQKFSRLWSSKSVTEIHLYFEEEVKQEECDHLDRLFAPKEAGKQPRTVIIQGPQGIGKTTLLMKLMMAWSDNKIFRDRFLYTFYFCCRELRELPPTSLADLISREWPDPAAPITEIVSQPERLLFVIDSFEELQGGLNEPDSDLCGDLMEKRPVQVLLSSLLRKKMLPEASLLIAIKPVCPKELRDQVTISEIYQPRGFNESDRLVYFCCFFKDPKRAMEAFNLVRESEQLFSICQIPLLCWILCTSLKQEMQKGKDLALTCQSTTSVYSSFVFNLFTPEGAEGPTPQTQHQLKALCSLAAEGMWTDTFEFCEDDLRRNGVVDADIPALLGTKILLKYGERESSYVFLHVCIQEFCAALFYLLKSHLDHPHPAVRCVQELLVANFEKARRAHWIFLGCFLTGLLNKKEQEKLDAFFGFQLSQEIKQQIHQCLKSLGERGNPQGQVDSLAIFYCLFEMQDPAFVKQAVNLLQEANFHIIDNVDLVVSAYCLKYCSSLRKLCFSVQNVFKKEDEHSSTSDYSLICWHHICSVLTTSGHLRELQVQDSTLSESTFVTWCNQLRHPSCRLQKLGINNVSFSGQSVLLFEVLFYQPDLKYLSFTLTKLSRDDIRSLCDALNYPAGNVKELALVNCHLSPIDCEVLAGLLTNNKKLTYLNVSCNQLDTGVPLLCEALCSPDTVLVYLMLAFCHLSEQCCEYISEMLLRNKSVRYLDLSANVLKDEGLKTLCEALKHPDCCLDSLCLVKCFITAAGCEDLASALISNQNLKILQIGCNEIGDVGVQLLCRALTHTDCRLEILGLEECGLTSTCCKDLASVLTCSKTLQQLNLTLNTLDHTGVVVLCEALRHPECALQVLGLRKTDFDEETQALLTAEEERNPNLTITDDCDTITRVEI

T1: TBK1 phosphorylated at Ser527 by DYRK2 (human) (UniProt Q9UHD2)
T1 sequence (chain, phosphoserine at 527 (by DYRK2)): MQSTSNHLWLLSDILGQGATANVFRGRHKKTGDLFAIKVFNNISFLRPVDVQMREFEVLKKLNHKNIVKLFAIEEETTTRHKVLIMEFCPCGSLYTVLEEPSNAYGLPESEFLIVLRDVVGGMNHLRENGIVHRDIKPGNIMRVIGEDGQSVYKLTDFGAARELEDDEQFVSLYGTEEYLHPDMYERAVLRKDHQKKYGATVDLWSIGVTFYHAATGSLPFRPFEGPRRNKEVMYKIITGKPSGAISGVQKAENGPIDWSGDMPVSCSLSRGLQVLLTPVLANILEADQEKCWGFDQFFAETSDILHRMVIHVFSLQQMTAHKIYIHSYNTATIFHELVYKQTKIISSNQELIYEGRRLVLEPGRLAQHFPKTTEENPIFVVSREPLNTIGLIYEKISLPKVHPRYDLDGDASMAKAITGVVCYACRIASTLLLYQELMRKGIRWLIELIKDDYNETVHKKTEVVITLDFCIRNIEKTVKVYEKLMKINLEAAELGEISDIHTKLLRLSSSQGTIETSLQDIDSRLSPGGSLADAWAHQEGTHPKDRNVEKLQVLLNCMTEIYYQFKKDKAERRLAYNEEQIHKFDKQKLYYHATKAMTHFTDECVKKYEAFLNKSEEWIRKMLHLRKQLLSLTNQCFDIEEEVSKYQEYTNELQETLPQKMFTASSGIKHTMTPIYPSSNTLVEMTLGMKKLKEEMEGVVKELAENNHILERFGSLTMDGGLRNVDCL

T2: TBK1 S527A mutant (human) (UniProt Q9UHD2)
T2 sequence: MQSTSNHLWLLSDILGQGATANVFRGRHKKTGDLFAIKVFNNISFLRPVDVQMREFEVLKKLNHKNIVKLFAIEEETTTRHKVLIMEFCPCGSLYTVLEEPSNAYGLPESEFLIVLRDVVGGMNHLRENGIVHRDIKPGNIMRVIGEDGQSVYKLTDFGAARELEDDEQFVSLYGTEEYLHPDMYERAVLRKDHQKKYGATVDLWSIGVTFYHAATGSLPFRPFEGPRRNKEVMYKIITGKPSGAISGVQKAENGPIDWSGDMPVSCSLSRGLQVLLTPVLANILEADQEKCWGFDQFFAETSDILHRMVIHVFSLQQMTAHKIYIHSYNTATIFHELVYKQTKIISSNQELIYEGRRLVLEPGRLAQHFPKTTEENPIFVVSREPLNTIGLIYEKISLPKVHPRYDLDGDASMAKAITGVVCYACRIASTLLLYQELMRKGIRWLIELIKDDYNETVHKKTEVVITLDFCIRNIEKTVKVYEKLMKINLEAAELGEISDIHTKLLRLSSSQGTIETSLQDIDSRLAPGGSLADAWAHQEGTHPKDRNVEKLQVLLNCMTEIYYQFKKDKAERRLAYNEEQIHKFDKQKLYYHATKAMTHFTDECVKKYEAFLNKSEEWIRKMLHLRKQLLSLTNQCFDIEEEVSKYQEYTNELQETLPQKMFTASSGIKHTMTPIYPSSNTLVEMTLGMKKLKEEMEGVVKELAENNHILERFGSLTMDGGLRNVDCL

T3: DYRK2 (endogenous) (human (endogenous in 293)) (UniProt Q92630)
T3 sequence: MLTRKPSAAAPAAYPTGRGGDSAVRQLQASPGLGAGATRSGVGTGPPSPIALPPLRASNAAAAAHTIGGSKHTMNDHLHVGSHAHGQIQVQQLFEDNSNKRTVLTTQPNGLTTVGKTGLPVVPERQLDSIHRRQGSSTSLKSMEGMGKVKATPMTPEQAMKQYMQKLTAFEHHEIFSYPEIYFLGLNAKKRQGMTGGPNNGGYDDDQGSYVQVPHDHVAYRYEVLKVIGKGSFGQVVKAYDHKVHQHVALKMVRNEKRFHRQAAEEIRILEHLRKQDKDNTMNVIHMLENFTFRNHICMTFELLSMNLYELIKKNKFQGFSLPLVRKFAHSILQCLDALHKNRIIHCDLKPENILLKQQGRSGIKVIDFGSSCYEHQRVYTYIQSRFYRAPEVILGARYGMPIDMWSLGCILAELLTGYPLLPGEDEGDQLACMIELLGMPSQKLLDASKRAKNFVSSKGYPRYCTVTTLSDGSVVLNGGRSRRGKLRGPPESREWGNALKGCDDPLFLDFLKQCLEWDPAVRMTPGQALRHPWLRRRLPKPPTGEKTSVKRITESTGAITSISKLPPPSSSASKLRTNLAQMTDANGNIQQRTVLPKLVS


Columns and labels:
[1] = target: T1, TBK1 phosphorylated at Ser527 by DYRK2 (human); test: co-IP; 293 cells transiently transfected with HA- and Flag-tagged plasmids; lysis in 20 mM Tris pH 7.5, 150 mM NaCl, 1% Triton, 1 mM EDTA; indicated antibody (anti-Flag in Fig 5B, 5D) or control IgG with protein G agarose, 4 h at 4°C; washes with 0.5 M NaCl; immunoblot with anti-HA or anti-Flag; Fig 6E with MG132, with or without overexpressed DYRK2
[2] = target: T2, TBK1 S527A mutant (human); test: co-IP
[3] = target: T3, DYRK2 (endogenous) (human (endogenous in 293)); test: co-IP; endogenous proteins; untransfected 293 cells treated with MG132 and infected with SeV, 8 to 12 h after infection; precipitated with anti-DYRK2 antibody or preimmune serum, blotted with anti-TBK1

Row | binding [1] | binding [2] | binding [3] | Molecule
1 | binds | no binding |  | NLRP4 (from UniProt Q96MN2 1-994)
2 |  |  | binds | TBK1 (endogenous) (enzyme, UniProt Q9UHD2 1-729) MQSTSNHLWLLSDILGQGATANVFRGRHKKTGDLFAIKVFNNISFLRPVDVQMREFEVLKKLNHKNIVKLFAIEEETTTRHKVLIMEFCPCGSLYTVLEEPSNAYGLPESEFLIVLRDVVGGMNHLRENGIVHRDIKPGNIMRVIGEDGQSVYKLTDFGAARELEDDEQFVSLYGTEEYLHPDMYERAVLRKDHQKKYGATVDLWSIGVTFYHAATGSLPFRPFEGPRRNKEVMYKIITGKPSGAISGVQKAENGPIDWSGDMPVSCSLSRGLQVLLTPVLANILEADQEKCWGFDQFFAETSDILHRMVIHVFSLQQMTAHKIYIHSYNTATIFHELVYKQTKIISSNQELIYEGRRLVLEPGRLAQHFPKTTEENPIFVVSREPLNTIGLIYEKISLPKVHPRYDLDGDASMAKAITGVVCYACRIASTLLLYQELMRKGIRWLIELIKDDYNETVHKKTEVVITLDFCIRNIEKTVKVYEKLMKINLEAAELGEISDIHTKLLRLSSSQGTIETSLQDIDSRLSPGGSLADAWAHQEGTHPKDRNVEKLQVLLNCMTEIYYQFKKDKAERRLAYNEEQIHKFDKQKLYYHATKAMTHFTDECVKKYEAFLNKSEEWIRKMLHLRKQLLSLTNQCFDIEEEVSKYQEYTNELQETLPQKMFTASSGIKHTMTPIYPSSNTLVEMTLGMKKLKEEMEGVVKELAENNHILERFGSLTMDGGLRNVDCL
